{"source": "PubChem BioAssay AID504467", "about": "(National Center for Advancing Translational Sciences (NCATS), 2011)", "note": "Where “and” joins values, the source holds several entries; their conditions need not be identical. Identical values can stand only once. Among all 330,000 compounds or so, about 7,700 (2.3%) were called active. The shares of active, inactive and inconclusive entries below differ from those in the screen. Calls follow the shape of the dose curve; as a rule, active = well fitted inhibition curve with a large enough effect; inconclusive = small, poorly fitted or top-dose-only effect, or effect the other way; inactive = flat fitted curve, though single readings scatter. Potencies beside an inconclusive call are fits to weak or partial responses and may not hold up. % is scaled to controls: 0 for no effect and ±100 for the full control effect; potency is read from the fitted curve at half-maximal effect."}
{"experiment": "qHTS screen for small molecules that inhibit ELG1-dependent DNA repair in human embryonic kidney (HEK293T) cells expressing luciferase-tagged ELG1; also: nearly all actives have a fitted effect of over 55% in size", "conditions": "HEK293T ELG1-luciferase reporter, luminescence, 16 h, DNA damage induced by 5-fluorouridine; activity change, negative = inhibition: at 46.1 µM (top of the series)", "method_in_brief": "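Overnight (16 hr) co-exposure of 2,000 cells/well to 5-fluorouridine and compound at 37 °C preceded detection. Luciferase was quantified via ONE-Glo luminescence; loss of signal denotes inhibition.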"}
{"smiles": "CNC(=O)CN1C(=O)COc2ccc(S(=O)(=O)N3CCCCCC3)cc21", "Potency": "inactive"}
{"smiles": "Cn1ccc(C(=O)N/N=C/c2ccccc2[N+](=O)[O-])n1", "Potency": "inconclusive: 20.6 µM [activator, partial curve]"}
{"smiles": "COC(=O)c1ccc(NC(=S)N2CCN(Cc3ccccc3)CC2)cc1", "Potency": "inconclusive: 20.6 µM [inhibitor, single point]"}
{"smiles": "CC1(C)CC[C@]2(C(=O)O)CC[C@]3(C)C(=CC[C@@H]4[C@@]5(C)CC[C@H](O[C@@H]6O[C@H](C(=O)O)[C@@H](O)[C@H](O[C@@H]7OC[C@H](O)[C@H](O)[C@H]7O)[C@H]6O)C(C)(C)[C@@H]5CC[C@]43C)[C@@H]2C1", "Potency": "inconclusive: 29.1 µM [inhibitor, single point]"}
{"smiles": "CCOC(=O)c1nn(-c2ccccc2)c(=O)cc1OCC(=O)Nc1cc(C)ccc1C", "Potency": "inconclusive: 20.6 µM [inhibitor, single point]"}
{"smiles": "COc1ccc(-n2c(C)c(C)c3c(N)ncnc32)cc1", "Potency": "active: 10.3 µM"}
{"smiles": "COC(=O)c1ccc(-n2nnnc2SCC(=O)Nc2cc(OC)ccc2OC)cc1", "Potency": "inactive"}
{"smiles": "Cc1ccc(-n2ccc(=O)c(C(=O)Nc3ccc(S(=O)(=O)N4CCOCC4)cc3)n2)cc1", "Potency": "inactive"}
{"smiles": "COc1cccc(-c2csc3ncnc(Sc4nnnn4C)c23)c1", "Potency": "inconclusive: 20.6 µM [inhibitor, single point]"}
{"smiles": "Cc1nc(NC(C)c2ccccc2)c2c3c(sc2n1)CCC3", "note": "(stereo not drawn)", "Potency": "inconclusive: 18.4 µM [inhibitor, single point]"}
{"smiles": "NC(=O)c1nsc(C(=O)N(CC(=O)NC2CCCCC2)Cc2ccc(F)cc2)c1N", "Potency": "inconclusive: 16.4 µM [activator, partial curve]"}
{"smiles": "Cc1csc(NC(=O)Nc2ccc(Cl)cc2)n1", "Potency": "inconclusive: 5.8 µM [activator, full curve]"}
{"smiles": "O=C(CCCN1C(=O)/C(=C/c2cccc(Br)c2)SC1=S)Nc1ccccn1", "Potency": "inconclusive: 23.1 µM [inhibitor, single point]"}
{"smiles": "CCN(CC)CCOC(=O)c1ccc(NC(=O)/C=C/c2cccs2)cc1", "Potency": "inconclusive: 14.6 µM [activator, single point]"}
{"smiles": "Cc1cc(C(=O)Nc2c(F)cc(F)cc2Br)no1", "Potency": "inconclusive: 20.6 µM [activator, single point]"}
{"smiles": "O=c1c(/C=N/O)coc2ccc3ccccc3c12", "activity change, negative = inhibition": "inconclusive: 107% [activator]"}
{"smiles": "COc1cc(C(C)=O)ccc1OCC(=O)Nc1cc(C)on1", "Potency": "inconclusive: 20.6 µM [activator, partial curve]"}
{"smiles": "CCCNCC1C(Oc2ccc(Cl)cc2Cl)C(=O)N1c1cccc(C)c1C", "note": "(stereo not drawn)", "Potency": "inconclusive: 14.6 µM [inhibitor, partial curve, poor fit]"}
{"smiles": "CCn1cc(/C=N\\NC(=O)c2cc(-c3ccccc3OC)nc3ccccc23)c(C)n1", "Potency": "inconclusive: 8.2 µM [inhibitor, partial curve, poor fit]"}
{"smiles": "CCOC(=O)c1cccc(-n2c(-c3ccc(OC)cc3)nc3nc4ccccc4nc32)c1", "Potency": "active: 10.3 µM"}
{"smiles": "Cc1cc2ccccn2c1C(=O)c1ccc(Cl)cc1", "Potency": "inconclusive: 35.5 µM [activator, single point]"}
{"smiles": "Cn1c(=NC(=O)C2=NNC(=O)CC2)sc2ccccc21", "Potency": "inconclusive: 20.6 µM [activator, partial curve]"}
{"smiles": "CCOc1ccc(NS(=O)(=O)c2ccc3c(c2)CCN3C(=O)C2CCC2)cc1", "Potency": "inactive"}
{"smiles": "CCCn1c(SCC(=O)N2CCN(C(=O)c3ccco3)CC2)nc2ccccc2c1=O", "Potency": "inconclusive: 18.3 µM [inhibitor, partial curve]"}
{"smiles": "C=CCn1c(O)c(N=NC(=S)Nc2ccc(OC)cc2)c2ccccc21", "Potency": "inconclusive: 23.1 µM [activator, single point]"}
{"smiles": "Cc1cccc(NC(=O)c2ccc(C(=O)c3ccccc3)cc2)n1", "Potency": "inconclusive: 3.16 µM [activator, partial curve, poor fit]"}
{"smiles": "CC(=O)Cn1ncc(Br)c(Br)c1=O", "Potency": "inconclusive: 29.1 µM [inhibitor, single point]"}
{"smiles": "CC(C)C(=O)c1cn(CC(=O)N2CCCc3ccccc32)c2ccccc12", "Potency": "inactive"}
{"smiles": "COc1ccccc1C(=O)NC(CCSC)C(=O)N1CCC(Cc2ccccc2)CC1", "note": "(stereo not drawn)", "Potency": "inconclusive: 8.2 µM [inhibitor, single point]"}
{"smiles": "NC(=O)c1c(NC(=O)C2COc3ccccc3O2)sc2c1CCN(Cc1ccccc1)C2", "note": "(stereo not drawn)", "Potency": "inactive"}
{"smiles": "COc1cc(/C=N/NC(=O)c2cc(-c3ccccc3)nc3ccccc23)cc(OC)c1O", "Potency": "inconclusive: 0.282 µM [activator, full curve]"}
{"smiles": "CCCc1cc(-c2nc(N)ncc2-c2csc(C)n2)c(O)cc1OC", "Potency": "inconclusive: 18.3 µM [inhibitor, single point]"}
{"smiles": "CCN1CCN(C(=O)c2cc3ccc(OC)cc3[nH]2)CC1", "Potency": "inconclusive: 18.3 µM [activator, partial curve]"}
{"smiles": "C/C(=N\\NC(=O)C1CC1)c1ccc(C(C)(C)C)cc1", "Potency": "inconclusive: 20.6 µM [activator, single point]"}
{"smiles": "S=C(N/N=C/c1ccc2c(c1)OCO2)NC1CC2CCC1C2", "note": "(stereo not drawn)", "Potency": "inconclusive: 29.1 µM [inhibitor, partial curve, poor fit]"}
{"smiles": "Cc1ccccc1-c1nc(Cc2ccc(Cl)cc2)no1", "Potency": "inconclusive: 29.1 µM [activator, single point]"}
{"smiles": "CN1/C(=C\\C(=O)c2cccc([N+](=O)[O-])c2)Sc2ccccc21", "Potency": "inconclusive: 4.11 µM [activator, partial curve]"}
{"smiles": "CCCCNc1c(-c2cccc(-c3ccc(OC)cc3)c2)nc2ccc(C)cn12", "Potency": "active: 3.16 µM"}
{"smiles": "O=C(COc1ccccc1Cl)NC(=S)N1CCc2ccccc21", "Potency": "inconclusive: 35.5 µM [activator, single point]"}
{"smiles": "CC1CN(C(=O)COC(=O)CSc2ccc(C(N)=O)cc2[N+](=O)[O-])CC(C)O1", "note": "(stereo not drawn)", "Potency": "inconclusive: 8.2 µM [activator, partial curve]"}
{"smiles": "COc1cc(-c2nnc(COC(=O)CSc3cc(C)c4ccccc4n3)o2)cc(OC)c1OC", "Potency": "inconclusive: 7.31 µM [inhibitor, partial curve]"}
{"smiles": "COc1ccc(Cc2noc(CN3CCN(Cc4cccc(Cl)c4)CC3)n2)cc1OC", "Potency": "active: 23.1 µM"}
{"smiles": "O=C(Nc1cccc(-c2cnc3ccccc3n2)c1)C1CC(=O)N(c2ccccc2)C1", "note": "(stereo not drawn)", "Potency": "inconclusive: 18.3 µM [inhibitor, partial curve, poor fit]"}
{"smiles": "Cc1cc(C)c(C#N)c(SCC(=O)NC(C)(C)C)n1", "Potency": "inconclusive: 20.6 µM [activator, partial curve, poor fit]"}
{"smiles": "O=C(Cn1c(=O)n(Cc2ccccc2)c(=O)c2ccccc21)NCc1ccco1", "Potency": "inactive"}
{"smiles": "FC(F)(F)c1cccc(Sc2cc(C(F)(F)F)nc(-c3ccccn3)n2)c1", "Potency": "inconclusive: 14.6 µM [inhibitor, single point]"}
{"smiles": "CCOC(=O)c1cc(C#N)c(SC)nc1-c1ccccc1", "Potency": "inconclusive: 2.31 µM [inhibitor, full curve]"}
{"smiles": "Oc1ccc(N2CCN(c3ncnc4sc5c(c34)CCC5)CC2)cc1", "Potency": "inconclusive: 9.2 µM [inhibitor, single point]"}
{"smiles": "CC(=O)c1ccc(S(=O)(=O)NCCc2csc(-c3cccnc3)n2)cc1", "Potency": "inactive"}
{"smiles": "CC(=O)Nc1ccc(C(=O)OCC(=O)NCc2ccc(Cl)cc2)cc1", "Potency": "inactive"}
{"smiles": "CSc1ccccc1OCc1cc(C(=O)NCCc2ccco2)no1", "Potency": "inconclusive: 14.6 µM [activator, partial curve]"}
{"smiles": "O=C(NC(=S)Nc1ccc2ncccc2c1)c1ccccc1", "Potency": "inconclusive: 8.2 µM [activator, partial curve]"}
{"smiles": "CCn1c(SCC(=O)NCc2ccccc2)nnc1-c1c[nH]c2ccccc12", "Potency": "inactive"}
{"smiles": "CCc1c(C)[nH]c2nc3ccccc3n2c1=O", "Potency": "inactive"}
{"smiles": "Cc1ccc2c(C)nc(Nc3nc(CSc4nnnn4-c4ccccc4)cc(=O)[nH]3)nc2c1", "Potency": "active: 8.2 µM"}
{"smiles": "S=C(Nc1ccccn1)c1ccccn1", "Potency": "inconclusive: 5.8 µM [activator, partial curve] and inconclusive: 16.4 µM [activator, partial curve]"}
{"smiles": "COC(=O)[C@H](Cc1c[nH]c2ccccc12)NC(=O)NCc1ccc(OC)cc1", "Potency": "inactive"}
{"smiles": "Cc1cc(Br)ccc1SCC(=O)OCC(=O)Nc1ccccc1C#N", "Potency": "inconclusive: 13 µM [activator, single point]"}
{"smiles": "Cc1cc(NC(=O)CCC(=O)N(c2cccc(F)c2)C(C(=O)NC2CCCC2)c2ccccc2)no1", "note": "(stereo not drawn)", "Potency": "inconclusive: 7.3 µM [inhibitor, partial curve, poor fit]"}
{"smiles": "COc1ccc(C(=O)CN2C(=O)NC3(CCCc4ccccc43)C2=O)cc1", "note": "(stereo not drawn)", "Potency": "inconclusive: 12.6 µM [inhibitor, single point]"}
{"smiles": "COc1cccc(NC(=S)N(CCc2c(C)[nH]c3ccccc23)Cc2ccco2)c1", "Potency": "active: 20.6 µM"}
{"smiles": "O=C1NC(Cc2c[nH]c3ccccc23)C(=O)N1c1ccc(F)cc1", "note": "(stereo not drawn)", "Potency": "inactive"}
{"smiles": "CCOC(=O)c1c(C)[nH]c(C(=O)OCC(=O)Nc2sc(C(=O)N(C)C)c(C)c2C(=O)OCC)c1C", "Potency": "active: 11.6 µM"}
{"smiles": "Cc1onc(-c2ccccc2Cl)c1C(=O)OCC(=O)N1CCCCC1", "Potency": "inactive"}
{"smiles": "Cn1c(N)c(C(=O)c2ccc(C#N)cc2)c(=O)n(C)c1=O", "Potency": "inactive"}
{"smiles": "CC(=O)c1ccc(OCc2cc(C(=O)N(C)Cc3ncc(C)[nH]3)no2)cc1", "Potency": "inactive"}
{"smiles": "COCCNC(=O)Nc1ccc2c(c1)N(C)C(=O)c1ccccc1S2", "Potency": "inactive"}
{"smiles": "CCOC(=O)c1c(C)nc2c(c1C)c(=O)oc1ccccc12", "Potency": "inconclusive: 18.4 µM [activator, partial curve]"}
